Source: the supplement of paper PMC10849652
The list shows a part of the results.

By UniProt entry, the sequences of proteins in these tests, tags left out. Where a name states a change or a piece, a line headed by the entry shows the natural chain unless it says otherwise.
UniProt Q8WVQ1: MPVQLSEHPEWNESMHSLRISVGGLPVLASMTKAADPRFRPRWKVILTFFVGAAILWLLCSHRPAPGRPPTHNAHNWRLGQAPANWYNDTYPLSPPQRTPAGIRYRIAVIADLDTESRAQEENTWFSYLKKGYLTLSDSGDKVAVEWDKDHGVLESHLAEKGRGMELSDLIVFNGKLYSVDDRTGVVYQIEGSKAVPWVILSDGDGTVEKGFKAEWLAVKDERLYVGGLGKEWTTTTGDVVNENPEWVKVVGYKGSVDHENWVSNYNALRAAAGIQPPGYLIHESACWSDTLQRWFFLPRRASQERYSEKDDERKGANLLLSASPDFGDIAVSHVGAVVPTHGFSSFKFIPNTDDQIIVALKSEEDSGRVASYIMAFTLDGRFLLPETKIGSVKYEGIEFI
UniProt Q86YS7: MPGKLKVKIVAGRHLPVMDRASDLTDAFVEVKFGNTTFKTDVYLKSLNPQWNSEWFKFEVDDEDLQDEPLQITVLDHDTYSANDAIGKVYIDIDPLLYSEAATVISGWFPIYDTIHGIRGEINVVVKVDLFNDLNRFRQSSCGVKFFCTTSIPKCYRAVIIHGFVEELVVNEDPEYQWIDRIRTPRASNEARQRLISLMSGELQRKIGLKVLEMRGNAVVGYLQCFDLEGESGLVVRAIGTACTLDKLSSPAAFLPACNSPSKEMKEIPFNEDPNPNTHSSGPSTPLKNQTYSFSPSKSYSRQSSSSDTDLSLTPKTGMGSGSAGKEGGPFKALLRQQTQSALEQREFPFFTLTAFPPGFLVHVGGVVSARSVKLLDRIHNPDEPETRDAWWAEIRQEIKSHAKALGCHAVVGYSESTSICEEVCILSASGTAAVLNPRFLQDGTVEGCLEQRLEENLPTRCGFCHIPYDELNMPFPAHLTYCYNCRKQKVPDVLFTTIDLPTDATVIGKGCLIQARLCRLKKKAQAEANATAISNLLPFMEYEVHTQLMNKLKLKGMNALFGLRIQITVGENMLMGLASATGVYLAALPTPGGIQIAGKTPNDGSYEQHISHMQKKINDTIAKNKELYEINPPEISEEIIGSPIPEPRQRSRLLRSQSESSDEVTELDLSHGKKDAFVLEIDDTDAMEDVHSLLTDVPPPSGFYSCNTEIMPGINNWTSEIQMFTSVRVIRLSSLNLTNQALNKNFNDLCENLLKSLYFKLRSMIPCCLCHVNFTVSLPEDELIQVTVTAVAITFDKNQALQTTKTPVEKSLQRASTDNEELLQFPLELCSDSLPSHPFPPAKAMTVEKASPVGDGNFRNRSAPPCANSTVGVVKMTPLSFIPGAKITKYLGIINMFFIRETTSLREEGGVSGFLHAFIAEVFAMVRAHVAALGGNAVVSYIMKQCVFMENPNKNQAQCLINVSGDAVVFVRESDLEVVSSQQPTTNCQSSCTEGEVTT
UniProt Q9H425: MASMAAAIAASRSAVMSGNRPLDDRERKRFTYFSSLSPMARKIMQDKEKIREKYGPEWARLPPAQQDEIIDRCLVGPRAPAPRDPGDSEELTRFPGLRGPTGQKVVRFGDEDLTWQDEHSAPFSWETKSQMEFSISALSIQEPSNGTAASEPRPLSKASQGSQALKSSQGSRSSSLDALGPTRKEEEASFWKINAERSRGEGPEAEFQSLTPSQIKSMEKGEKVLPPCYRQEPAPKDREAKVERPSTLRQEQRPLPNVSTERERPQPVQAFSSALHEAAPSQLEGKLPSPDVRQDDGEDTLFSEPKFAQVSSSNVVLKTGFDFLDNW
UniProt Q14012: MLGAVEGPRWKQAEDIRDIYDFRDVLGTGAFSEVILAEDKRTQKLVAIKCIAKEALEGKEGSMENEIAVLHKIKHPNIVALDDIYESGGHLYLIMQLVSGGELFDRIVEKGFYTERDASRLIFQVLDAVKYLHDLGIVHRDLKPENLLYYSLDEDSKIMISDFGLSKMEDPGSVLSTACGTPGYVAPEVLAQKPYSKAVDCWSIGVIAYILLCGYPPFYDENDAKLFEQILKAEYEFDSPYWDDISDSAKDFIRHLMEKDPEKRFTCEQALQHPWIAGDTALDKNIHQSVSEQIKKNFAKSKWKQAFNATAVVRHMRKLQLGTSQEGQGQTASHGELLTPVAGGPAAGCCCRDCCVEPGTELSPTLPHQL
UniProt Q49AR2: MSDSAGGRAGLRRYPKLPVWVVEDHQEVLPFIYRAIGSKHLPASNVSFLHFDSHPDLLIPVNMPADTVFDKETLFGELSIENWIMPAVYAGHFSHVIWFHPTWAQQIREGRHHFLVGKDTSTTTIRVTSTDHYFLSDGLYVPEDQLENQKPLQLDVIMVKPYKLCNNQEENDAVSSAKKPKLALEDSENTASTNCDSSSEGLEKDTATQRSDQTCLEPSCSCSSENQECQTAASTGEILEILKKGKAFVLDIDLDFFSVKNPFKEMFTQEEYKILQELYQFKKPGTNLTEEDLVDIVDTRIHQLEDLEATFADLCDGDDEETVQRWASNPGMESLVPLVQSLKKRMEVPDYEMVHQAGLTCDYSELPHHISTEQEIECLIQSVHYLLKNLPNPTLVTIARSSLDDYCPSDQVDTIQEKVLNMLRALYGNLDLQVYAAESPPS
UniProt O60566, whole entry, looked up: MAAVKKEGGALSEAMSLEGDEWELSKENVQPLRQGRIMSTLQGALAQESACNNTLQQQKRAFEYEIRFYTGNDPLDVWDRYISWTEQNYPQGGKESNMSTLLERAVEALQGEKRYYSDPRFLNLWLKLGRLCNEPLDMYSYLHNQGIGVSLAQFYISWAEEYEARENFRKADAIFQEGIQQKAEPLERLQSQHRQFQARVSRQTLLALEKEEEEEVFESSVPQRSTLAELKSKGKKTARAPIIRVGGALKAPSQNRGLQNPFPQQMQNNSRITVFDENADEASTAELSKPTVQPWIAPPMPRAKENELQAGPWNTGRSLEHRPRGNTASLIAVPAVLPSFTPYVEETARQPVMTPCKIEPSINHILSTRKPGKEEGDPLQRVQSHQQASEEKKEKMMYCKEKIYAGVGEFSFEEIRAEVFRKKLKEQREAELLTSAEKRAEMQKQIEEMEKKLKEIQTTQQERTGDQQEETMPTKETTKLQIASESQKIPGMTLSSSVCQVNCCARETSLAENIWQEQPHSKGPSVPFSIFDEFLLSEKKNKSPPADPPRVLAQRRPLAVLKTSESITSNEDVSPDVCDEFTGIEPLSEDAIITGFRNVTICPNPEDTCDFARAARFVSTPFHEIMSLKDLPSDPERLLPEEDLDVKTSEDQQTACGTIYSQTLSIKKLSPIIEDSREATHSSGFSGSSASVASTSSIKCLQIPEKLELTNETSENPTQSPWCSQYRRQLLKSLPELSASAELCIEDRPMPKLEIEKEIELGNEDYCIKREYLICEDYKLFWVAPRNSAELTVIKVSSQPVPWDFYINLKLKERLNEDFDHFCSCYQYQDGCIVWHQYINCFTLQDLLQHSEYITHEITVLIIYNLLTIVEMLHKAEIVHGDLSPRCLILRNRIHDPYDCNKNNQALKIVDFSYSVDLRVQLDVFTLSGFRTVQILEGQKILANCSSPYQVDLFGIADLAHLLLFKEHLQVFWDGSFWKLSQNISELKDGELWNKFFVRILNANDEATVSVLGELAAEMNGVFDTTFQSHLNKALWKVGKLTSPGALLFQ
UniProt P47756, whole entry, looked up: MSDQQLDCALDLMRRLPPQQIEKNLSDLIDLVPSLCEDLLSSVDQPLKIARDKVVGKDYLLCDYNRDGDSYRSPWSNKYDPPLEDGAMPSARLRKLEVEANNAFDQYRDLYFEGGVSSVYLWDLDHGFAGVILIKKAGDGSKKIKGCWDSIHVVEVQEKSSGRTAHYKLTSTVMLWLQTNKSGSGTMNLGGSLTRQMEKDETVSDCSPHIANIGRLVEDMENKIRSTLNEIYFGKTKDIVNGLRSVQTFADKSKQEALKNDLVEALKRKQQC
UniProt Q8N5I9: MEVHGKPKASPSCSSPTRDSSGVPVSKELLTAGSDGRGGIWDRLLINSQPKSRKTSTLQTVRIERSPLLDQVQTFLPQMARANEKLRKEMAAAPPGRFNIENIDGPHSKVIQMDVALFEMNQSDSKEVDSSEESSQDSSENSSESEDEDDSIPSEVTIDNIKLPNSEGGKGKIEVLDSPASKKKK
UniProt O75808: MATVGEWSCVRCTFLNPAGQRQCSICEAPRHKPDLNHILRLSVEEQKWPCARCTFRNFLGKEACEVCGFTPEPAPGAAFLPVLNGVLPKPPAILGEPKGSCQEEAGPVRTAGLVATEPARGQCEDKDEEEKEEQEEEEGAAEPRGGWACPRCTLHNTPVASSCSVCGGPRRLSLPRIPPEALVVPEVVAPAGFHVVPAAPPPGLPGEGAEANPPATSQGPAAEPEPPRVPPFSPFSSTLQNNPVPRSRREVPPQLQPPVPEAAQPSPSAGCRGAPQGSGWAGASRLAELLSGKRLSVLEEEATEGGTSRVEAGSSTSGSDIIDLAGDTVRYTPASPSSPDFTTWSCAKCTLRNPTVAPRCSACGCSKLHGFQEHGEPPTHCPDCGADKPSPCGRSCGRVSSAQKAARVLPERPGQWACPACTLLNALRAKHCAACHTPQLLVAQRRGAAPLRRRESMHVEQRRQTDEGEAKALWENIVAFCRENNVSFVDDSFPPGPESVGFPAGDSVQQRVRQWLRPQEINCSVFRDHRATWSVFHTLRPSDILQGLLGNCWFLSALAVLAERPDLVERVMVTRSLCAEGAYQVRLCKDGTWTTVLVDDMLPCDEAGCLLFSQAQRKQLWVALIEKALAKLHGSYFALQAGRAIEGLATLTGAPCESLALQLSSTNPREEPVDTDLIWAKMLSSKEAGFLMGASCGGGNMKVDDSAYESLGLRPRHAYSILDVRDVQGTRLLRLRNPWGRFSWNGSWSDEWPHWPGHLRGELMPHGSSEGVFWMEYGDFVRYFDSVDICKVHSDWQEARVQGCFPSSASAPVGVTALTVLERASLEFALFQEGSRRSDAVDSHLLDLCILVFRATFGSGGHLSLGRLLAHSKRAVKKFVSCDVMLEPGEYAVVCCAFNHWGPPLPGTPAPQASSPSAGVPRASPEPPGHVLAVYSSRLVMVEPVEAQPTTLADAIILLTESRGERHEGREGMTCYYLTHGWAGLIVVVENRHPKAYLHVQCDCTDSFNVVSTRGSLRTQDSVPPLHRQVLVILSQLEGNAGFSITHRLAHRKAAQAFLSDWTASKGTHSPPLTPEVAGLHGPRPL
UniProt Q9H3J6: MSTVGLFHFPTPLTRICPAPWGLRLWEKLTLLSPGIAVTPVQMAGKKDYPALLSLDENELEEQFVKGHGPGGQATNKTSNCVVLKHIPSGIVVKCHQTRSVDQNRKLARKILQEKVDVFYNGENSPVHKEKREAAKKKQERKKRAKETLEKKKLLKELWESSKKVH
UniProt P00915: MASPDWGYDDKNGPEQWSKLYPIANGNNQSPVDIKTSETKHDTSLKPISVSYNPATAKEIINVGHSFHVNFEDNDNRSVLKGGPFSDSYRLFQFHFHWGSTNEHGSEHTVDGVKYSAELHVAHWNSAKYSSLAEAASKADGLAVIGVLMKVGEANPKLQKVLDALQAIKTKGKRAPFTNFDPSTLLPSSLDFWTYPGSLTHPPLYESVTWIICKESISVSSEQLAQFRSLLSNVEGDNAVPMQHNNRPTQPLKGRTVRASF
UniProt Q9NZ63: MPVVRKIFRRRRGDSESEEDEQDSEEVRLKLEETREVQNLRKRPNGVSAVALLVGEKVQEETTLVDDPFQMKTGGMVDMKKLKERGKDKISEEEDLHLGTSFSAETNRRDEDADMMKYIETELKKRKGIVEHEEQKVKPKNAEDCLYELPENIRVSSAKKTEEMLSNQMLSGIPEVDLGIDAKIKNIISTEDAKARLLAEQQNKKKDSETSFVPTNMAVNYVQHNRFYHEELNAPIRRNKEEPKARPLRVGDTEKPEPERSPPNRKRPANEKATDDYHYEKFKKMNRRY
UniProt Q13137: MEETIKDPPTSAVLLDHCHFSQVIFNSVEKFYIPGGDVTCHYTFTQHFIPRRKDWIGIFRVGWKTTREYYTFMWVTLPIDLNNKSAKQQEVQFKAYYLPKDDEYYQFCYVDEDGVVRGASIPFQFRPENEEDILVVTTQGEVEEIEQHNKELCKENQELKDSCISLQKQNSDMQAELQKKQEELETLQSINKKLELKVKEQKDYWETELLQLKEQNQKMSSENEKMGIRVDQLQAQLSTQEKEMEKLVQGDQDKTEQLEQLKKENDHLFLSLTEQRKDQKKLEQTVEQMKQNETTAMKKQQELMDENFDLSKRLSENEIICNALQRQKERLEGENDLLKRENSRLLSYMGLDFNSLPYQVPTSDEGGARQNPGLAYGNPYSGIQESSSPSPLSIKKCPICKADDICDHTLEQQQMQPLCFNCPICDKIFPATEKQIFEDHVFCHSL

Legend:
Assay in all cases: log2 fold change, soluble protein after heating vs DMSO (PISA); higher = thermal stabilisation; K562 lysate, 10 uM; active = over 0.2 and 3.5 SD of the protein, either way, in both replicates (recomputed)
[1] = compound: C#Cc1cccc(Nc2ncnc3cc(OCCOC)c(OCCOC)cc23)c1 [erlotinib]
Method in brief: (§1)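 K562 pellets were dounce-homogenised in PBS pH 7.4 containing 1 mM MgCl2, and the crude extract, at 1 mg/mL protein, was exposed to 10 μM compound for 30 min. Aliquots were heated for 3 min across 48°C-58°C, pooled, brought to 0.5% NP-40 at 4°C and spun at 21,000xg for 90 min, with the supernatant taken as soluble protein. TMTpro 16plex LC-MS/MS with equalised channel sums quantified that protein. Values are log-two fold changes in thermal stability relative to solvent controls, taken from duplicates.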

[2] = compound: C/C(=N\NC(=O)C1=CC(=CC=C1)S(=O)(=O)N2CCOCC2)/C3=C(C=CC(=C3)Cl)O
Method in brief: as §1

[3] = compound: C1=CC(=CC=C1C2=NC3=C(N2)C=C(C=C3)C(=O)N)OC4=CC=C(C=C4)Cl
Method in brief: as §1

[4] = compound: C1=CC2=C(C=CC(=C2)/C=C\3/C(=O)NC(=NCC4=CC=CS4)S3)N=C1
Method in brief: as §1

[5] = compound: C1=CC2=NC=CN=C2C=C1/C=C/3\C(=O)NC(=O)S3
Method in brief: as §1

[6] = compound: C1=CC=C(C=C1)C2=NC(=C(N2)C3=CC=NC=C3)C4=CC(=C(C=C4)Cl)O
Method in brief: as §1

[7] = compound: C1=CC=C2C(=C1)C3=NNC4=CC=CC(=C43)C2=O
Method in brief: as §1

[8] = compound: C1CCN(C1)C(=O)NC2=CC=CC(=C2)NC3=NC=C(C(=N3)NCCC4=CN=CN4)Br
Method in brief: as §1

[9] = compound: C1CN(CCC1(CC2=CC=C(C=C2)Cl)N)C3=NC=NC4=C3C=CN4
Method in brief: as §1

[10] = compound: C1COCCN1CCN2C3=CC=CC=C3N=C2NC(=O)C4=CC(=CC=C4)[N+](=O)[O-] [IRAK-1-4 Inhibitor I]
Method in brief: as §1

[11] = compound: C=CC(=O)N1CCC[C@@H](n2nc(-c3ccc(Oc4ccccc4)cc3)c3c(N)ncnc32)C1 [ibrutinib]
Method in brief: as §1

[12] = compound: CC(=O)c1cnc2ccc(-c3cc(Cl)c(O)c(Cl)c3)nc2c1N[C@H]1CC[C@H](CN(C)C)CC1
Method in brief: as §1

[13] = compound: CC(C)(C)Cn1c(N)nc2ccc(-c3[nH]c(C(C)(C)C)nc3-c3ccc(F)cc3)nc21 [ralimetinib]
Method in brief: as §1

[14] = compound: CC(C)(O)CC(=O)NCCn1ccc2ncnc(Nc3ccc(Oc4cccc(C(F)(F)F)c4)c(Cl)c3)c21
Method in brief: as §1

[15] = compound: CC(C)C1=C2N=C(C=C(N2N=C1)NCC3=CC=CC=C3)NCCCCCCN
Method in brief: as §1

[16] = compound: CC1=C(C(CC(=O)N1)C2=CC=C(C=C2)C(F)(F)F)C(=O)NC3=C(C=C4C(=C3)C=NN4)F
Method in brief: as §1

[17] = compound: CC1=C(C2=C(C=C1)C(=O)C3=CC=CC=C3N2CCCN)C
Method in brief: as §1

[18] = compound: CC1=C(C=C(C=C1)NC(=O)C2=CC(=CC=C2)C(C)(C)C#N)NC3=CC4=C(C=C3)N=CN(C4=O)C
Method in brief: as §1

[19] = compound: CC1=C(C=C(C=C1)NC(=O)C2=CC(=CC=C2)N(C)C)NC(=O)C3=CC=C(C=C3)O
Method in brief: as §1

[20] = compound: CC1=CC=C(C=C1)SC2=C3C=C(SC3=CN=C2)C(=O)N
Method in brief: as §1

Measured: log2 fold change

CANT1 (UniProt Q8WVQ1)
inactive: [1] 0.012 | [2] -0.021 | [3] -0.038 | [4] 0.01 | [5] -0.026 | [6] 0.006 | [7] 0.001 | [8] 0.013 | [9] -0.022 | [10] 0.01 | [11] -0.001 | [12] 0.02 | [13] 0.008 | [14] 0.013 | [15] -0.016 | [16] 0.051 | [17] 0.004 | [18] -0.035 | [19] -0.04 | [20] -0.001

C2CD5 isoform 3 (UniProt Q86YS7)
inactive: [1] 0.021 | [2] -0.047 | [3] 0.017 | [4] -0.024 | [5] -0.048 | [6] -0.034 | [7] -0.046 | [8] -0.045 | [9] 0.024 | [10] 0.054 | [11] -0.005 | [12] -0.026 | [13] 0.016 | [14] -0.123 | [15] 0.019 | [16] -0.018 | [17] 0.023 | [18] 0.071 | [19] -0.004 | [20] -0.068

C1orf198 (UniProt Q9H425)
inactive: [1] -0.024 | [2] -0.039 | [3] 0.05 | [4] -0.045 | [5] -0.041 | [6] 0.049 | [7] -0.045 | [8] -0.183 | [9] -0.024 | [10] -0.003 | [11] -0.018 | [12] 0.004 | [13] 0.031 | [14] -0.015 | [15] 0.007 | [16] -0.166 | [17] -0.004 | [18] 0.01 | [19] -0.132 | [20] -0.067

CAMK1 (UniProt Q14012)
inactive: [1] -0.014 | [2] -0.145 | [3] 0.008 | [4] 0 | [5] 0.037 | [6] -0.011 | [7] 0.135 | [8] 0 | [9] 0.016 | [10] 0.107 | [11] 0.017 | [12] 0.009 | [13] 0.004 | [14] -0.144 | [15] -0.017 | [16] -0.034 | [17] -0.003 | [18] 0.016 | [19] -0.027 | [20] 0.008

C5orf22 (UniProt Q49AR2)
inactive: [1] -0.047 | [2] -0.073 | [3] 0.024 | [4] -0.01 | [5] 0.003 | [6] 0.024 | [7] -0.011 | [8] -0.007 | [9] 0.035 | [10] -0.012 | [11] 0.004 | [12] 0.009 | [13] 0.012 | [14] -0.006 | [15] -0.005 | [16] -0.022 | [17] -0.009 | [18] 0.002 | [19] 0.002 | [20] -0.006

BUB1B isoform 3 (UniProt O60566)
inactive: [1] 0.019 | [2] 0.013 | [3] -0.002 | [4] -0.026 | [5] 0.01 | [6] 0.021 | [7] -0.039 | [8] -0.031 | [9] -0.008 | [10] -0.016 | [11] 0.035 | [12] -0.007 | [13] 0.001 | [14] 0.021 | [15] 0.003 | [16] -0.001 | [17] 0.004 | [18] -0.028 | [19] 0.003 | [20] 0.001

CAPZB (UniProt P47756)
inactive: [1] -0.015 | [2] -0.014 | [3] 0.01 | [4] -0.007 | [5] -0.014 | [6] -0.025 | [7] 0.022 | [8] 0.008 | [9] 0.012 | [10] -0.028 | [11] 0.027 | [12] 0.011 | [13] -0.017 | [14] 0.006 | [15] -0.006 | [16] 0 | [17] -0.01 | [18] -0.009 | [19] -0.026 | [20] -0.002

C12orf45 (UniProt Q8N5I9)
inactive: [1] -0.038 | [2] -0.113 | [3] 0.027 | [4] 0.009 | [5] -0.037 | [6] 0.009 | [7] 0.009 | [8] -0.018 | [9] 0.009 | [10] -0.002 | [11] 0.027 | [12] 0.003 | [13] 0.005 | [14] 0.014 | [15] 0.033 | [16] -0.021 | [17] -0.02 | [18] -0.018 | [19] 0.02 | [20] -0.043

CAPN15 (UniProt O75808)
inactive: [1] 0.01 | [2] 0.187 | [3] -0.011 | [4] -0.028 | [5] -0.104 | [6] -0.05 | [7] 0.026 | [8] 0.019 | [9] 0.031 | [10] 0.01 | [11] 0.037 | [12] -0.065 | [13] 0.09 | [14] 0.008 | [15] -0.002 | [16] 0.025 | [17] 0.019 | [18] 0.086 | [19] 0.007 | [20] 0.046

CA2 (UniProt P00918)
inactive: [1] -0.086 | [2] -0.146 | [3] 0.13 | [4] -0.188 | [5] -0.058 | [6] 0.031 | [7] 0.036 | [8] -0.009 | [9] -0.112 | [10] -0.141 | [11] 0.021 | [12] -0.028 | [13] -0.033 | [14] 0.08 | [15] 0.034 | [16] 0 | [17] -0.242 | [18] -0.006 | [19] -0.022 | [20] 0.001

C12orf65 (UniProt Q9H3J6)
inactive: [1] 0.051 | [2] 0.092 | [3] -0.046 | [4] 0.083 | [5] -0.009 | [6] 0.011 | [7] 0.031 | [8] 0.056 | [9] -0.074 | [10] 0.006 | [11] 0.147 | [12] -0.015 | [13] 0.019 | [14] -0.01 | [15] 0.027 | [16] -0.028 | [17] -0.115 | [18] -0.009 | [19] -0.005 | [20] 0.035

Reprinted from the entries so far (2 entries):
CA2 (UniProt P00918)
inactive: [1] -0.086 | [2] -0.146 | [3] 0.13 | [4] -0.188 | [5] -0.058 | [6] 0.031 | [7] 0.036 | [8] -0.009 | [9] -0.112 | [10] -0.141 | [11] 0.021 | [12] -0.028 | [13] -0.033 | [14] 0.08 | [15] 0.034 | [16] 0 | [17] -0.242 | [18] -0.006 | [19] -0.022 | [20] 0.001

C12orf65 (UniProt Q9H3J6)
inactive: [1] 0.051 | [2] 0.092 | [3] -0.046 | [4] 0.083 | [5] -0.009 | [6] 0.011 | [7] 0.031 | [8] 0.056 | [9] -0.074 | [10] 0.006 | [11] 0.147 | [12] -0.015 | [13] 0.019 | [14] -0.01 | [15] 0.027 | [16] -0.028 | [17] -0.115 | [18] -0.009 | [19] -0.005 | [20] 0.035

Following part:

C1orf112 (UniProt Q9NSG2)
inactive: [1] -0.053 | [2] 0.015 | [3] 0.079 | [4] -0.008 | [5] -0.057 | [6] 0.026 | [7] 0 | [8] -0.046 | [9] 0.054 | [10] -0.034 | [11] 0.014 | [12] 0.038 | [13] 0.022 | [14] -0.061 | [15] 0.017 | [16] 0.067 | [17] -0.085 | [18] -0.029 | [19] 0.036 | [20] 0.091

CAPZA1 (UniProt P52907)
inactive: [1] -0.016 | [2] -0.009 | [3] 0.012 | [4] -0.004 | [5] 0.032 | [6] -0.001 | [7] -0.027 | [8] -0.016 | [9] 0.042 | [10] 0.018 | [11] 0.013 | [12] -0.008 | [13] 0.028 | [14] -0.037 | [15] -0.032 | [16] -0.009 | [17] -0.03 | [18] 0.034 | [19] -0.006 | [20] -0.034

CA1 (UniProt P00915)
inactive: [1] -0.008 | [2] -0.046 | [3] 0.015 | [4] 0.018 | [5] 0.01 | [6] 0.009 | [7] -0.024 | [8] 0.009 | [9] 0.007 | [10] 0 | [11] 0.015 | [12] -0.023 | [13] 0.001 | [14] -0.035 | [15] 0.003 | [16] -0.004 | [17] 0.001 | [18] 0.023 | [19] 0.01 | [20] -0.001

C9orf78 (UniProt Q9NZ63)
inactive: [1] -0.04 | [2] -0.031 | [3] 0.016 | [4] 0.017 | [5] -0.026 | [6] 0.025 | [7] -0.006 | [8] 0.002 | [9] 0 | [10] -0.067 | [11] 0.029 | [12] 0.014 | [13] -0.004 | [14] 0.067 | [15] -0.014 | [16] -0.039 | [17] -0.001 | [18] -0.044 | [19] 0.01 | [20] -0.009

CALCOCO2 isoform 4 (UniProt Q13137)
inactive: [1] 0.009 | [2] 0.114 | [3] 0.005 | [4] -0.021 | [5] -0.004 | [6] -0.026 | [7] 0.003 | [8] -0.025 | [9] 0.051 | [10] 0.012 | [11] -0.002 | [12] 0.018 | [13] -0.012 | [14] -0.014 | [15] -0.026 | [16] -0.03 | [17] -0.005 | [18] 0.015 | [19] 0.023 | [20] 0.027
